In US20200055913A1:
Results are given in words; binding and its absence hold for the method and conditions named. For part of these data: In cells and extracts the contact can be indirect. Some results given as binding are weak or reduced against the parent protein; the word gives no strength.

Protein sequences, listed by entry. Tags and fused reporters are not part of them. Lines headed by an entry give the natural chain unless they say otherwise; changes in a name come on top. Residues count along the entry.
UniProt O00206, residues 24-631: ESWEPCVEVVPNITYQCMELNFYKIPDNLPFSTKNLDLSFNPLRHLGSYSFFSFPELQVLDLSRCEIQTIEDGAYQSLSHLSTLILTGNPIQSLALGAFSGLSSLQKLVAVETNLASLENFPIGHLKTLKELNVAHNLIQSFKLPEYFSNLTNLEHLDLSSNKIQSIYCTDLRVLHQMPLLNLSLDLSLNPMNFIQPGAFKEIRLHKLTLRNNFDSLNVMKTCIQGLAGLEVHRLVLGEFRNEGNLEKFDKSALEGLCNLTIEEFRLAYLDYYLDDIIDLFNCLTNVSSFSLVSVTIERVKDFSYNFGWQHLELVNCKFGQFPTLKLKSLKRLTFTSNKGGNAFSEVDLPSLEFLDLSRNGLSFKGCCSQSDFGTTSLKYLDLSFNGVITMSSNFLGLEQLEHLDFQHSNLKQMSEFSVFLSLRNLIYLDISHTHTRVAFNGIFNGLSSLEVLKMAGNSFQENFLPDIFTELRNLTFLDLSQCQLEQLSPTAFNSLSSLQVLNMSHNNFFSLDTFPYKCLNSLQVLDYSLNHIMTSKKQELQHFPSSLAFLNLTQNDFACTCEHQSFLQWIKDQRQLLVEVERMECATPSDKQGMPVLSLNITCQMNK
UniProt Q9QUK6, residues 26-835: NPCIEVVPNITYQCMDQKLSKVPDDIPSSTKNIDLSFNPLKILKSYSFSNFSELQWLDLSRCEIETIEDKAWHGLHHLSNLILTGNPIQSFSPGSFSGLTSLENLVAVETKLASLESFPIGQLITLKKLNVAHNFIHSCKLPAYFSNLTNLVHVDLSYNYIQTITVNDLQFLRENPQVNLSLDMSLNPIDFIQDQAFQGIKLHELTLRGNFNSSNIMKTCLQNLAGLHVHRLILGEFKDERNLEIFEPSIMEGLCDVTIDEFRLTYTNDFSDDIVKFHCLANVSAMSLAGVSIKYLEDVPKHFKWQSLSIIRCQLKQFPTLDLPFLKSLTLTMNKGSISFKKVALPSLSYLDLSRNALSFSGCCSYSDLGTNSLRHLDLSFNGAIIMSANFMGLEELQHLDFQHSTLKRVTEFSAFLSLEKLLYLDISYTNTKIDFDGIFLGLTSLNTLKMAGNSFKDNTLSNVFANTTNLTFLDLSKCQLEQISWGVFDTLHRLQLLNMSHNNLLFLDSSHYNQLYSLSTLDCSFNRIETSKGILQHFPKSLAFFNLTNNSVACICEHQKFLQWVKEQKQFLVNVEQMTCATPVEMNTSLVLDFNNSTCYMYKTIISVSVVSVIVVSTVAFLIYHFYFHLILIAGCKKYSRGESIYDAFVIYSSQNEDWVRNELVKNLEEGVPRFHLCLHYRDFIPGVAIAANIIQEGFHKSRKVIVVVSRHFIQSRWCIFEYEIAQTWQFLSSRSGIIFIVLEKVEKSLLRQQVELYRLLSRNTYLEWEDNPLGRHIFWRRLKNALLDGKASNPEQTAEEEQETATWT
UniProt Q9HD89: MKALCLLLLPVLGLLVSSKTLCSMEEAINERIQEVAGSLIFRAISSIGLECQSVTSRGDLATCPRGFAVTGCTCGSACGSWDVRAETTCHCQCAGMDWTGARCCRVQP

Tests used:
[1] = molecular target: histidine (his)-tagged human TLR4 (human) (UniProt O00206); test: pull-down on nickel-NTA agarose beads, anti-hRetn Western blot
[2] = molecular target: histidine (his)-tagged human TLR4 (human) (UniProt O00206); test: pull-down and peptide competition (summary of the examples)
[3] = molecular target: mouse TLR4 on lung and peritoneal cells of Tlr4+/+ mice (mouse) (UniProt Q9QUK6); test: flow cytometry, hRetn cellular binding assay on lung cells of Nb-infected Tlr4+/+ or Tlr4-/- mice
[4] = molecular target: mouse TLR4 on lung and peritoneal cells of Tlr4+/+ mice (mouse) (UniProt Q9QUK6); test: flow cytometry on day 7 Nb-infected Tlr4+/+ and Tlr4-/- lung cells

binding [1] | binding [2] | binding [3] | binding [4] | Substance
binds | binds | – | – | mammalian cell-derived human resistin (hRetn), 293T cell-derived (LifeSpan Biosciences) (from UniProt Q9HD89 19-108) (ligand)
binds | binds | binds | binds | recombinant human resistin (hRetn), E. coli-derived (Peprotech) (from UniProt Q9HD89 17-108) (ligand)
